Experimental data taken from the supplement of paper PMC12823440, “Inhibitors supercharge kinase turnover through native proteolytic circuits” (Nature, 2025).
Structures can show the parent of a compound that is named as a salt. This is one part of the list. The calls rarely recur for the same compound in another form.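 In K562 cells expressing nanoluciferase-fused kinases, luminescence was recorded at 4 h intervals between 2 and 18 h, normalized as percent of control with DMSO at 100% and a positive control at 0%. A significant (2 sigma) signal drop marks a time point as decreased. The authors' rule for a hit is not shown and takes in more than the number of time points.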

Amino acid sequences for entries named in this document (tags omitted). A change or cut given only in a name is not applied to a line headed by its entry.
UniProt P50613: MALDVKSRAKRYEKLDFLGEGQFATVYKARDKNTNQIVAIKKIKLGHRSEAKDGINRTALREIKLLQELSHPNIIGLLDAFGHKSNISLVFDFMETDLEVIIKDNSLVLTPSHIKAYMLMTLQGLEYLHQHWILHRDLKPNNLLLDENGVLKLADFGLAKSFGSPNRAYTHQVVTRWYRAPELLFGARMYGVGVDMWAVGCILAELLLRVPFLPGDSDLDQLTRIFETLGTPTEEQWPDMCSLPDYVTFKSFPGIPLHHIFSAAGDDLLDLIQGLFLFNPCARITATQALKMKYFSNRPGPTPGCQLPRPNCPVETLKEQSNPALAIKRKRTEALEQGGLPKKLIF
UniProt P50750, whole entry: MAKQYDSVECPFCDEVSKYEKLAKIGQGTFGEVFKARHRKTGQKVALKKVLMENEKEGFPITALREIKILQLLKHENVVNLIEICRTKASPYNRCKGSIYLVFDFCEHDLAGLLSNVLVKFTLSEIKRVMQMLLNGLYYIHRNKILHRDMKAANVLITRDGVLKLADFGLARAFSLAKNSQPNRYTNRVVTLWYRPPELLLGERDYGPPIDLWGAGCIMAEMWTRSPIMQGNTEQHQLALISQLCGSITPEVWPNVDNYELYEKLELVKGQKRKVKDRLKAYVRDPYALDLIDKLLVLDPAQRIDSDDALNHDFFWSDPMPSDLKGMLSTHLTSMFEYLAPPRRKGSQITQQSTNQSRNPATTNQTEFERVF
UniProt O96017, whole entry: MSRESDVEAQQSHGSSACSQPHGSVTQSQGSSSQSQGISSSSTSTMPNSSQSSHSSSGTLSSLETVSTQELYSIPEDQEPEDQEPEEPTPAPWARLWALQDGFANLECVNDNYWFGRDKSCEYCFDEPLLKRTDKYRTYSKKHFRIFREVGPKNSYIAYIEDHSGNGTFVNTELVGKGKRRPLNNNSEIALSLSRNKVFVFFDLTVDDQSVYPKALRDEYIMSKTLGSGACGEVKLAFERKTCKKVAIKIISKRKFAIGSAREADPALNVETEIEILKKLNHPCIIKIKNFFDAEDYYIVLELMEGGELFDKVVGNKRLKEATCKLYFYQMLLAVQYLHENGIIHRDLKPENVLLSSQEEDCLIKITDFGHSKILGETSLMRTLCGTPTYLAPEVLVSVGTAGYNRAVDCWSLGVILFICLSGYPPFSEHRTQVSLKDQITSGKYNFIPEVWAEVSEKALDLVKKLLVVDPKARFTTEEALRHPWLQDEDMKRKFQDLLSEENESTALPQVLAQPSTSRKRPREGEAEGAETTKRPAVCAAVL
UniProt P07333, whole entry: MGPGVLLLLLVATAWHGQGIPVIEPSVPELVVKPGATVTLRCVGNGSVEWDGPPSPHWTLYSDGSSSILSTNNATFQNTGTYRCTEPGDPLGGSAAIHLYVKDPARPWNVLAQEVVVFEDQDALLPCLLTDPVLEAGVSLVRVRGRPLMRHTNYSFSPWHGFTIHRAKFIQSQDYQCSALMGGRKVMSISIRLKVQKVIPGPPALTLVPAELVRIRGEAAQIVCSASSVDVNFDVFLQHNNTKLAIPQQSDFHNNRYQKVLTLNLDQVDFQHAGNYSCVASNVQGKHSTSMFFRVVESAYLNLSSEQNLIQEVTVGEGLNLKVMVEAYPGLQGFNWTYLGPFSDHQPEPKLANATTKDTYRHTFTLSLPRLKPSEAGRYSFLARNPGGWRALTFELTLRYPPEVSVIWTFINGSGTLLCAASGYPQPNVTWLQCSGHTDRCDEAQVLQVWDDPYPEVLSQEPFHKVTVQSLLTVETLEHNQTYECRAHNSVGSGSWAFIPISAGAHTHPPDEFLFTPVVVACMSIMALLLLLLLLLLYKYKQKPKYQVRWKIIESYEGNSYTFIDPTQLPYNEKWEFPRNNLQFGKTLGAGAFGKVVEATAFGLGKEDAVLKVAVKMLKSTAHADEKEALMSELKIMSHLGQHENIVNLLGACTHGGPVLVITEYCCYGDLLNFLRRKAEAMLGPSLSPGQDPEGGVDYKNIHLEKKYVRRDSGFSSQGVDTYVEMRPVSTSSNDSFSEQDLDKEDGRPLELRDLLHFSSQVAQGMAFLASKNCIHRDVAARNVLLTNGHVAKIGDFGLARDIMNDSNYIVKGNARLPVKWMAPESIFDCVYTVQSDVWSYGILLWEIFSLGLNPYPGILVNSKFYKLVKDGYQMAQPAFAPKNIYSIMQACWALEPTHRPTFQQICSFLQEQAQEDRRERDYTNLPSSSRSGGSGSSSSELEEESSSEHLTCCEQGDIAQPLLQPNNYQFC
UniProt P41240: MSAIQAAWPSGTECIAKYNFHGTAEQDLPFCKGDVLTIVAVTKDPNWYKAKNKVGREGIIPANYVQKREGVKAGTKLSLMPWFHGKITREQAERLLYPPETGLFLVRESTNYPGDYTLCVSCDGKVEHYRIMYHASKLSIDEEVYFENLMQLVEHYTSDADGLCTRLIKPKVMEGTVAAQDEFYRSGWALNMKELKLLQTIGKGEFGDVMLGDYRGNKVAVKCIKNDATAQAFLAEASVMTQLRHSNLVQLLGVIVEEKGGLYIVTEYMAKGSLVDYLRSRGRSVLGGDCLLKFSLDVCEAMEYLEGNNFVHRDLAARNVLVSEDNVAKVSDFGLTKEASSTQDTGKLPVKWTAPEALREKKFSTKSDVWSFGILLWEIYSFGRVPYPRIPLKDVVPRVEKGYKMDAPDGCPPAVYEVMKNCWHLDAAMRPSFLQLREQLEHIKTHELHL
UniProt P48729: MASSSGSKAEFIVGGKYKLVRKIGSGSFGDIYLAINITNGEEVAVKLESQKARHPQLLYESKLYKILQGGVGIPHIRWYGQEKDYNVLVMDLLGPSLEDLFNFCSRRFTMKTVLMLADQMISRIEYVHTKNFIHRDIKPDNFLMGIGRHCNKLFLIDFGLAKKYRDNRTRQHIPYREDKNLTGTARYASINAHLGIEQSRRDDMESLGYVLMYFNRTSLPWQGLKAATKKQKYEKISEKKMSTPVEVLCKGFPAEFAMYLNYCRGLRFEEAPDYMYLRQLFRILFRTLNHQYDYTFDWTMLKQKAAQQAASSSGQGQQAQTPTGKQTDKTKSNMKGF
UniProt P48730: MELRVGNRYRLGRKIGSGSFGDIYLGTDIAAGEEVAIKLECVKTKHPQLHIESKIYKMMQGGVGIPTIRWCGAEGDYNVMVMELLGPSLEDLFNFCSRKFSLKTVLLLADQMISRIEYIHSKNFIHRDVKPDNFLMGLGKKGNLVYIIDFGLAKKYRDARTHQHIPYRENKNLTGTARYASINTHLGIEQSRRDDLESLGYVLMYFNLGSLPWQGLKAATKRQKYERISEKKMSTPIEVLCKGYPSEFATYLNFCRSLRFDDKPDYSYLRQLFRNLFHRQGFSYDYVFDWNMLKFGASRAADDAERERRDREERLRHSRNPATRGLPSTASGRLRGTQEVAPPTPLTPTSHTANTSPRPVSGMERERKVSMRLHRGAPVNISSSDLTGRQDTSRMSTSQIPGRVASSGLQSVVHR
UniProt Q08345: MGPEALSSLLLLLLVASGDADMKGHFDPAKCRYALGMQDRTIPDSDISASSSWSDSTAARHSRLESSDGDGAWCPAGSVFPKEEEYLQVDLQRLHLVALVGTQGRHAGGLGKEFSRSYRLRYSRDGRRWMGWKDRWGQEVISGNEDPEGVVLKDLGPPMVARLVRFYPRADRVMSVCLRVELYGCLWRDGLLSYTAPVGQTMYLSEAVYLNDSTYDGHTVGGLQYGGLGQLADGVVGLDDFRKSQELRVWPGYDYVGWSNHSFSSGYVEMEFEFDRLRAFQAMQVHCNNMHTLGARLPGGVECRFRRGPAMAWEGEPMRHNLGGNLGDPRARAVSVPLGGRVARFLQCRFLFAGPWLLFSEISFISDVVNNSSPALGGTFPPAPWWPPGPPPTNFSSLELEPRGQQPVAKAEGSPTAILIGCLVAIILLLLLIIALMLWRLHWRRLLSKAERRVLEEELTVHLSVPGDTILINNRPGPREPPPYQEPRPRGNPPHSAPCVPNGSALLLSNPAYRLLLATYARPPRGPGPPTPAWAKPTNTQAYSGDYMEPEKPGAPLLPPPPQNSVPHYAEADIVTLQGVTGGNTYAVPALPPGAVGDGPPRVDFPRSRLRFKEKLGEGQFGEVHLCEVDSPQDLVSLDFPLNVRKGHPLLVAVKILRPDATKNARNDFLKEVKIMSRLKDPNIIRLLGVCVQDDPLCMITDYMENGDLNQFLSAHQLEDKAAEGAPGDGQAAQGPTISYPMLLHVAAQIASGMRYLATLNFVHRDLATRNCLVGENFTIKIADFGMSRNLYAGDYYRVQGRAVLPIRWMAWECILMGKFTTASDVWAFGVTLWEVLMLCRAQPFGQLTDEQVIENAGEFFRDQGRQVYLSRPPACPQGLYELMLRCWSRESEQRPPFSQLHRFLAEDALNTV
UniProt Q9Y463, whole entry, looked up: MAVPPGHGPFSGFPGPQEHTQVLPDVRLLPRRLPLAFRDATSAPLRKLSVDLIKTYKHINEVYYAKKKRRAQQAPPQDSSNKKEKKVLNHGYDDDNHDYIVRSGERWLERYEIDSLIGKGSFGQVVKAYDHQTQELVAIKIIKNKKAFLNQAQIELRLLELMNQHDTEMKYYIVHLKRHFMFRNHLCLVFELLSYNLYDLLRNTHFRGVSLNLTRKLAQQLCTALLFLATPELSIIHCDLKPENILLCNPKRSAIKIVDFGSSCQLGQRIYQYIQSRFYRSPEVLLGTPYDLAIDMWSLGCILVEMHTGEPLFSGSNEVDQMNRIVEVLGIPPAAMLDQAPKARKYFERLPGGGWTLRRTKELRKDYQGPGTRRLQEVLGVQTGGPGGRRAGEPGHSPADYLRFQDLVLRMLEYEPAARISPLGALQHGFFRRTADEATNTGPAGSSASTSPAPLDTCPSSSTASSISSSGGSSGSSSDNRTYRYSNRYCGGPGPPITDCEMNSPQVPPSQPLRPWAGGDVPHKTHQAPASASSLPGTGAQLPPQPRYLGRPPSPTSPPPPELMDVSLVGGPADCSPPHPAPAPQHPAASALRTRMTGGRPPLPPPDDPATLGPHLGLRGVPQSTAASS
UniProt Q92630: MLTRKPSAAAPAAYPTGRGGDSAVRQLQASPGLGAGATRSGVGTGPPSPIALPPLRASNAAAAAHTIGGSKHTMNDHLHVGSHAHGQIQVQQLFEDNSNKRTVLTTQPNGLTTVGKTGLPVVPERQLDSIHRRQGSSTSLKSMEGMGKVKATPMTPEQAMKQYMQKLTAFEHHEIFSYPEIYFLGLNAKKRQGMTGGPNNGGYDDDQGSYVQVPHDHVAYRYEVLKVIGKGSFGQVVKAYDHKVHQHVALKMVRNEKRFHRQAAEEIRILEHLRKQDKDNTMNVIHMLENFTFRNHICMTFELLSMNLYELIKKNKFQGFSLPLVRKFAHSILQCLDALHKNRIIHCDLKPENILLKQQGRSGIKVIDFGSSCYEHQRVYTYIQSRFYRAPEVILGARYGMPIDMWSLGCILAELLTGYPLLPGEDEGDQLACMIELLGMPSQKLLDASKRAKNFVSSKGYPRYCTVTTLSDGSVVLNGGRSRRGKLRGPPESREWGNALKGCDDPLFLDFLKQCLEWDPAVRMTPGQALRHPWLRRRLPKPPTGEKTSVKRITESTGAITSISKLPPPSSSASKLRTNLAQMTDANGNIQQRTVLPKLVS

Tests used:
Test in all cases: kinase-Nluc reporter destabilization hit call (1 = scored as downregulated) (binary); higher = compound decreases kinase abundance
Conditions in all cases: K562, 2-18 h
[1] = target: CDK7 (UniProt P50613)
[2] = target: CDK9 (UniProt P50750)
[3] = target: CHEK2 (UniProt O96017)
[4] = target: CSF1R (UniProt P07333)
[5] = target: CSK (UniProt P41240)
[6] = target: CSNK1A1 (UniProt P48729)
[7] = target: CSNK1D (UniProt P48730)
[8] = target: DDR1 (UniProt Q08345)
[9] = target: DYRK1B (UniProt Q9Y463)
[10] = target: DYRK2 (UniProt Q92630)

Measured: kinase-Nluc reporter destabilization hit call

O=c1ncn2nc(Sc3ccc(F)cc3F)ccc2c1-c1c(Cl)cccc1Cl [Neflamapimod]
inactive: [1]; 10 µM 0 | [2]; 10 µM 0 | [3]; 10 µM 0 | [4]; 10 µM 0 | [5]; 10 µM 0 | [6]; 10 µM 0 | [7]; 10 µM 0 | [8]; 10 µM 0 | [9]; 10 µM 0 | [10]; 10 µM 0

Cc1cc(Nc2cc(N3CCN(C)CC3)nc(/C=C/c3ccccc3)n2)n[nH]1
inactive: [1]; 2.5 µM 0 | [2]; 2.5 µM 0 | [3]; 2.5 µM 0 | [4]; 2.5 µM 0 | [5]; 2.5 µM 0 | [6]; 2.5 µM 0 | [7]; 2.5 µM 0 | [8]; 2.5 µM 0 | [9]; 2.5 µM 0 | [10]; 2.5 µM 0

Cc1ccc2c(=O)c3cccc(CC(=O)O)c3oc2c1C [Vadimezan]
inactive: [1]; 10 µM 0 | [2]; 10 µM 0 | [3]; 10 µM 0 | [4]; 10 µM 0 | [5]; 10 µM 0 | [6]; 10 µM 0 | [7]; 10 µM 0 | [8]; 10 µM 0 | [9]; 10 µM 0 | [10]; 10 µM 0

NCCNc1ncc(C(N)=O)c(Nc2cccc(C(F)(F)F)c2)n1 [Syk Inhibitor II]
inactive: [1]; 10 µM 0 | [2]; 10 µM 0 | [3]; 10 µM 0 | [4]; 10 µM 0 | [5]; 10 µM 0 | [6]; 10 µM 0 | [7]; 10 µM 0 | [8]; 10 µM 0 | [9]; 10 µM 0 | [10]; 10 µM 0

C[C@H]1CN(C2COC2)CCN1c1ccc(Nc2cc(-c3ccnc(N4CCn5c(cc6c5CC(C)(C)C6)C4=O)c3CO)cn(C)c2=O)nc1 [Fenebrutinib]
inactive: [1]; 10 µM 0 | [2]; 10 µM 0 | [3]; 10 µM 0 | [4]; 10 µM 0 | [5]; 10 µM 0 | [6]; 10 µM 0 | [7]; 10 µM 0 | [8]; 10 µM 0 | [9]; 10 µM 0 | [10]; 10 µM 0

CC(C)n1nc(-c2cc3cc(O)ccc3[nH]2)c2c(N)ncnc21 [Torkinib]
inactive: [1]; 2.5 µM 0 | [2]; 2.5 µM 0 | [3]; 2.5 µM 0 | [4]; 2.5 µM 0 | [5]; 2.5 µM 0 | [6]; 2.5 µM 0 | [7]; 2.5 µM 0 | [8]; 2.5 µM 0 | [9]; 2.5 µM 0 | [10]; 2.5 µM 0

COc1ccc(-c2cc3nccn3c(Nc3ncccc3C(N)=O)n2)cc1OC [BAY 61-3606 (dihydrochloride)]
inactive: [1]; 2.5 µM 0 | [2]; 2.5 µM 0 | [3]; 2.5 µM 0 | [4]; 2.5 µM 0 | [5]; 2.5 µM 0 | [6]; 2.5 µM 0 | [7]; 2.5 µM 0 | [8]; 2.5 µM 0 | [9]; 2.5 µM 0 | [10]; 2.5 µM 0

C=CC(=O)Nc1cc2c(Nc3ccc(F)c(Cl)c3)ncnc2cc1OCCCN1CCOCC1 [Canertinib (dihydrochloride)]
inactive: [1]; 2.5 µM 0 | [2]; 2.5 µM 0 | [3]; 2.5 µM 0 | [4]; 2.5 µM 0 | [5]; 2.5 µM 0 | [6]; 2.5 µM 0 | [7]; 2.5 µM 0 | [8]; 2.5 µM 0 | [9]; 2.5 µM 0 | [10]; 2.5 µM 0

O=C1Cc2c([nH]c3ccc(Br)cc23)-c2ccccc2N1 [Kenpaullone]
inactive: [1]; 10 µM 0 | [2]; 10 µM 0 | [3]; 10 µM 0 | [4]; 10 µM 0 | [5]; 10 µM 0 | [6]; 10 µM 0 | [7]; 10 µM 0 | [8]; 10 µM 0 | [9]; 10 µM 0 | [10]; 10 µM 0

CC#CC(=O)N1CCC[C@H]1c1nc(-c2ccc(C(=O)Nc3ccccn3)cc2)c2c(N)nccn12 [Acalabrutinib]
inactive: [1]; 10 µM 0 | [2]; 10 µM 0 | [3]; 10 µM 0 | [4]; 10 µM 0 | [5]; 10 µM 0 | [6]; 10 µM 0 | [7]; 10 µM 0 | [8]; 10 µM 0 | [9]; 10 µM 0 | [10]; 10 µM 0

CCc1cc2c(cc1-c1cnn(CC(=O)N(C)C)c1)C(C)(C)c1[nH]c3cc(C#N)ccc3c1C2=O
inactive: [1]; 2.5 µM 0 | [2]; 2.5 µM 0 | [3]; 2.5 µM 0 | [4]; 2.5 µM 0 | [5]; 2.5 µM 0 | [6]; 2.5 µM 0 | [7]; 2.5 µM 0 | [8]; 2.5 µM 0 | [9]; 2.5 µM 0 | [10]; 2.5 µM 0

2 records drawn at random from the list so far, as already listed:
CCc1cc2c(cc1-c1cnn(CC(=O)N(C)C)c1)C(C)(C)c1[nH]c3cc(C#N)ccc3c1C2=O
inactive: [1]; 2.5 µM 0 | [2]; 2.5 µM 0 | [3]; 2.5 µM 0 | [4]; 2.5 µM 0 | [5]; 2.5 µM 0 | [6]; 2.5 µM 0 | [7]; 2.5 µM 0 | [8]; 2.5 µM 0 | [9]; 2.5 µM 0 | [10]; 2.5 µM 0

COc1ccc(-c2cc3nccn3c(Nc3ncccc3C(N)=O)n2)cc1OC [BAY 61-3606 (dihydrochloride)]
inactive: [1]; 2.5 µM 0 | [2]; 2.5 µM 0 | [3]; 2.5 µM 0 | [4]; 2.5 µM 0 | [5]; 2.5 µM 0 | [6]; 2.5 µM 0 | [7]; 2.5 µM 0 | [8]; 2.5 µM 0 | [9]; 2.5 µM 0 | [10]; 2.5 µM 0

(continued)

Cc1ccc(-n2nc(C(C)(C)C)cc2NC(=O)Nc2ccc(OCCN3CCOCC3)c3ccccc23)cc1 [Doramapimod]
inactive: [1]; 10 µM 0 | [2]; 10 µM 0 | [3]; 10 µM 0 | [5]; 10 µM 0 | [6]; 10 µM 0 | [7]; 10 µM 0 | [9]; 10 µM 0 | [10]; 10 µM 0

COc1cc2/c(=N/c3ccc(Br)cc3F)nc[nH]c2cc1OCC1CCN(C)CC1 [Vandetanib]
inactive: [1]; 2.5 µM 0 | [3]; 2.5 µM 0 | [5]; 2.5 µM 0 | [6]; 2.5 µM 0 | [7]; 2.5 µM 0 | [8]; 2.5 µM 0 | [9]; 2.5 µM 0 | [10]; 2.5 µM 0

COc1ccc(CNC(=O)Nc2ncc([N+](=O)[O-])s2)cc1
inactive: [1]; 2.5 µM 0 | [2]; 2.5 µM 0 | [3]; 2.5 µM 0 | [4]; 2.5 µM 0 | [5]; 2.5 µM 0 | [6]; 2.5 µM 0 | [8]; 2.5 µM 0 | [9]; 2.5 µM 0 | [10]; 2.5 µM 0

CNC(=O)c1cc(Oc2ccc(NC(=O)Nc3ccc(Cl)c(C(F)(F)F)c3)cc2)ccn1 [Sorafenib (Tosylate)]
inactive: [1]; 10 µM 0 | [2]; 10 µM 0 | [3]; 10 µM 0 | [5]; 10 µM 0 | [6]; 10 µM 0 | [7]; 10 µM 0 | [8]; 10 µM 0 | [9]; 10 µM 0 | [10]; 10 µM 0

CC(C)(C)n1nc(-c2ccc(Cl)cc2)c2c(N)ncnc21
inactive: [1]; 10 µM 0 | [2]; 10 µM 0 | [3]; 10 µM 0 | [4]; 10 µM 0 | [5]; 10 µM 0 | [6]; 10 µM 0 | [7]; 10 µM 0 | [8]; 10 µM 0 | [9]; 10 µM 0 | [10]; 10 µM 0

O=C1NCCc2[nH]c(-c3ccncc3)cc21
inactive: [1]; 2.5 µM 0 | [2]; 2.5 µM 0 | [3]; 2.5 µM 0 | [4]; 2.5 µM 0 | [5]; 2.5 µM 0 | [7]; 2.5 µM 0 | [8]; 2.5 µM 0 | [9]; 2.5 µM 0 | [10]; 2.5 µM 0

CCN(CC)CCNC(=O)c1c(C)[nH]c(/C=C2\C(=O)Nc3ccc(F)cc32)c1C [Sunitinib]
inactive: [1]; 2.5 µM 0 | [2]; 2.5 µM 0 | [3]; 2.5 µM 0 | [4]; 2.5 µM 0 | [5]; 2.5 µM 0 | [7]; 2.5 µM 0 | [8]; 2.5 µM 0 | [9]; 2.5 µM 0 | [10]; 2.5 µM 0

O=C(Nc1cccc(Cl)c1)Nc1ncc(CCNc2ncnc3ccsc23)s1 [SNS-314 (mesylate)]
inactive: [1]; 10 µM 0 | [2]; 10 µM 0 | [3]; 10 µM 0 | [5]; 10 µM 0 | [6]; 10 µM 0 | [7]; 10 µM 0 | [8]; 10 µM 0 | [9]; 10 µM 0 | [10]; 10 µM 0

O=C(NCCCNc1nc(Nc2cccc(CN3CCOCC3)c2)ncc1C1CC1)C1CCC1
inactive: [1]; 10 µM 0 | [2]; 10 µM 0 | [3]; 10 µM 0 | [5]; 10 µM 0 | [6]; 10 µM 0 | [7]; 10 µM 0 | [8]; 10 µM 0 | [9]; 10 µM 0 | [10]; 10 µM 0

Cc1cn(-c2cc(NC(=O)c3ccc(C)c(Nc4nccc(-c5cccnc5)n4)c3)cc(C(F)(F)F)c2)cn1 [Nilotinib]
inactive: [1]; 2.5 µM 0 | [2]; 2.5 µM 0 | [3]; 2.5 µM 0 | [4]; 2.5 µM 0 | [5]; 2.5 µM 0 | [6]; 2.5 µM 0 | [7]; 2.5 µM 0 | [8]; 2.5 µM 0 | [9]; 2.5 µM 0 | [10]; 2.5 µM 0

CCOc1nc(NC(=O)Cc2cc(OC)ccc2OC)cc(N)c1C#N [JNK Inhibitor VIII]
inactive: [1]; 10 µM 0 | [2]; 10 µM 0 | [3]; 10 µM 0 | [4]; 10 µM 0 | [5]; 10 µM 0 | [7]; 10 µM 0 | [8]; 10 µM 0 | [9]; 10 µM 0 | [10]; 10 µM 0

COc1cc2ncnc(Nc3cccc(Br)c3)c2cc1OC
inactive: [1]; 10 µM 0 | [2]; 10 µM 0 | [3]; 10 µM 0 | [4]; 10 µM 0 | [5]; 10 µM 0 | [6]; 10 µM 0 | [7]; 10 µM 0 | [8]; 10 µM 0 | [9]; 10 µM 0 | [10]; 10 µM 0

COc1ccc(-c2c[nH]c3nccc(-c4ccsc4)c23)c(OC)c1
inactive: [1]; 10 µM 0 | [2]; 10 µM 0 | [3]; 10 µM 0 | [5]; 10 µM 0 | [6]; 10 µM 0 | [7]; 10 µM 0 | [8]; 10 µM 0 | [9]; 10 µM 0 | [10]; 10 µM 0

Cc1nc(Nc2ncc(C(=O)Nc3c(C)cccc3Cl)s2)cc(N2CCN(CCO)CC2)n1 [Dasatinib]
inactive: [1]; 2.5 µM 0 | [2]; 2.5 µM 0 | [3]; 2.5 µM 0 | [5]; 2.5 µM 0 | [6]; 2.5 µM 0 | [7]; 2.5 µM 0 | [9]; 2.5 µM 0 | [10]; 2.5 µM 0
active: [8]; 2.5 µM 1

CN1CCN(c2ccc3nc(-c4c(N)c5c(F)cccc5[nH]c4=O)[nH]c3c2)CC1 [Dovitinib]
inactive: [1]; 2.5 µM 0 | [2]; 2.5 µM 0 | [3]; 2.5 µM 0 | [5]; 2.5 µM 0 | [6]; 2.5 µM 0 | [7]; 2.5 µM 0 | [8]; 2.5 µM 0 | [9]; 2.5 µM 0 | [10]; 2.5 µM 0

CCCCCCCCCCCCc1ccc(S(=O)(=O)Nc2nncs2)cc1
inactive: [1]; 10 µM 0 | [2]; 10 µM 0 | [3]; 10 µM 0 | [4]; 10 µM 0 | [5]; 10 µM 0 | [6]; 10 µM 0 | [7]; 10 µM 0 | [8]; 10 µM 0 | [9]; 10 µM 0 | [10]; 10 µM 0

CN1CCN(c2ccc3nc(-c4c(N)c5c(F)cccc5[nH]c4=O)[nH]c3c2)CC1 [Dovitinib (lactate)]
inactive: [1]; 2.5 µM 0 | [2]; 2.5 µM 0 | [3]; 2.5 µM 0 | [5]; 2.5 µM 0 | [6]; 2.5 µM 0 | [7]; 2.5 µM 0 | [8]; 2.5 µM 0 | [9]; 2.5 µM 0 | [10]; 2.5 µM 0

Cc1ccc(Nc2nccc(N(C)c3ccc4c(C)n(C)nc4c3)n2)cc1S(N)(=O)=O [Pazopanib]
inactive: [1]; 10 µM 0 | [2]; 10 µM 0 | [3]; 10 µM 0 | [5]; 10 µM 0 | [6]; 10 µM 0 | [7]; 10 µM 0 | [8]; 10 µM 0 | [9]; 10 µM 0 | [10]; 10 µM 0

Cc1ccc(O)cc1Nc1ccnc(Nc2cccc(C(N)=O)c2)n1 [Lck inhibitor 2]
inactive: [1]; 10 µM 0 | [2]; 10 µM 0 | [3]; 10 µM 0 | [4]; 10 µM 0 | [5]; 10 µM 0 | [6]; 10 µM 0 | [7]; 10 µM 0 | [8]; 10 µM 0 | [9]; 10 µM 0 | [10]; 10 µM 0

CCCOc1ccc(C=C2SC(=O)NC2=O)cc1
inactive: [1]; 10 µM 0 | [2]; 10 µM 0 | [3]; 10 µM 0 | [4]; 10 µM 0 | [5]; 10 µM 0 | [6]; 10 µM 0 | [7]; 10 µM 0 | [8]; 10 µM 0 | [9]; 10 µM 0 | [10]; 10 µM 0

COc1cc2ncnc(Nc3ccc(F)c(Cl)c3)c2cc1OCCCN1CCOCC1 [Gefitinib]
inactive: [1]; 10 µM 0 | [2]; 10 µM 0 | [3]; 10 µM 0 | [4]; 10 µM 0 | [5]; 10 µM 0 | [6]; 10 µM 0 | [7]; 10 µM 0 | [8]; 10 µM 0 | [9]; 10 µM 0 | [10]; 10 µM 0
